Results are given in words; binding and its absence hold for the method and conditions named. Binding seen in cells or lysates may run through a third protein. Some entries that bind do so weakly or less than the wild type. For part of these data: Sequences can lack the tags named with a protein. Values belong to the binder of their own block, whether it stands above or below them.
Key:
[1] = target: Flag-tagged DNA topoisomerase 1 (TOP1) (human (cDNA from OL cells)) (UniProt P11387); assay: co-IP; OL cells transfected with Flag-tagged UBP plasmids (10 ug); lysed in RIPA buffer; anti-Flag M2 agarose overnight at 4 C, eluted with 3xFlag peptide; blot for endogenous DDX21 or nucleolin
[2] = target: Flag-tagged nucleolin (human (cDNA from OL cells)) (UniProt P19338); assay: as above
[3] = target: T1, Flag-tagged hnRNPQ1 (human (cDNA from OL cells)) (UniProt O60506); assay: co-IP; OL cells co-transfected with Flag-tagged and HA-tagged UBP plasmids (5 ug each), 36 h; lysates immunoprecipitated with anti-FLAG antibody; blot with anti-HA
T1 sequence: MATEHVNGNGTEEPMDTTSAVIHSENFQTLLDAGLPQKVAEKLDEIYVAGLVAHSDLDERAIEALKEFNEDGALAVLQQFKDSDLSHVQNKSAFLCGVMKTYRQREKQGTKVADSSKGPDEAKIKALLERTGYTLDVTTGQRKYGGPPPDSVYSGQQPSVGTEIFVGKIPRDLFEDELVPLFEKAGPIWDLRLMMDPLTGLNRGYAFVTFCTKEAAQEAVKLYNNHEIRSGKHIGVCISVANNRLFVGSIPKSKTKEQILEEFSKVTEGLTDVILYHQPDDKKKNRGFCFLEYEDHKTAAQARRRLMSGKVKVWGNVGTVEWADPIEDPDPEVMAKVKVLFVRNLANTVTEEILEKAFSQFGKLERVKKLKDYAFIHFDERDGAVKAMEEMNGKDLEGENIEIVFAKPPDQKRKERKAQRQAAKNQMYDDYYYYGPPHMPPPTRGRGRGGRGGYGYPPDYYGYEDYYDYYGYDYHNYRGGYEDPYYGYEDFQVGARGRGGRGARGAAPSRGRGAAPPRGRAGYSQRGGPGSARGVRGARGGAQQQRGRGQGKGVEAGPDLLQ

Amino acid sequences for entries named in this document (tags omitted).
UniProt P11387: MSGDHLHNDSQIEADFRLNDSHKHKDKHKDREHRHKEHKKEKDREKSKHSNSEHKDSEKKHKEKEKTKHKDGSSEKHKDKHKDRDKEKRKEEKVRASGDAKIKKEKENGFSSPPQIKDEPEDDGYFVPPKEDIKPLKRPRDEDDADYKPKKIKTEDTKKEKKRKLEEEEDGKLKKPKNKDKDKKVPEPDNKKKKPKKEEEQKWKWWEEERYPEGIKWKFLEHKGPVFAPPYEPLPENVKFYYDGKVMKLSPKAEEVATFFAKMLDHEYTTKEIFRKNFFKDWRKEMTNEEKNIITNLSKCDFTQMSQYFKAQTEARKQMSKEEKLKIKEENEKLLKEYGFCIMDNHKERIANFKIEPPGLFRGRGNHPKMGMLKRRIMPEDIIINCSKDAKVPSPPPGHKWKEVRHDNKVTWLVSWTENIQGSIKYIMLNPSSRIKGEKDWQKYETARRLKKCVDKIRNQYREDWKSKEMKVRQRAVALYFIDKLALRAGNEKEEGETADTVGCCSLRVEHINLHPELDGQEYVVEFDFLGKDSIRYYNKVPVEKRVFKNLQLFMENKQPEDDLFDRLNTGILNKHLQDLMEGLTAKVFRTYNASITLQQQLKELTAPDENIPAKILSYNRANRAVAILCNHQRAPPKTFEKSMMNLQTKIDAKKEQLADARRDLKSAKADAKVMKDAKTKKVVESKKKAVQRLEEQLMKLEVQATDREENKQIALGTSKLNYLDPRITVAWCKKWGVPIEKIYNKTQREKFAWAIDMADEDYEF
UniProt P19338: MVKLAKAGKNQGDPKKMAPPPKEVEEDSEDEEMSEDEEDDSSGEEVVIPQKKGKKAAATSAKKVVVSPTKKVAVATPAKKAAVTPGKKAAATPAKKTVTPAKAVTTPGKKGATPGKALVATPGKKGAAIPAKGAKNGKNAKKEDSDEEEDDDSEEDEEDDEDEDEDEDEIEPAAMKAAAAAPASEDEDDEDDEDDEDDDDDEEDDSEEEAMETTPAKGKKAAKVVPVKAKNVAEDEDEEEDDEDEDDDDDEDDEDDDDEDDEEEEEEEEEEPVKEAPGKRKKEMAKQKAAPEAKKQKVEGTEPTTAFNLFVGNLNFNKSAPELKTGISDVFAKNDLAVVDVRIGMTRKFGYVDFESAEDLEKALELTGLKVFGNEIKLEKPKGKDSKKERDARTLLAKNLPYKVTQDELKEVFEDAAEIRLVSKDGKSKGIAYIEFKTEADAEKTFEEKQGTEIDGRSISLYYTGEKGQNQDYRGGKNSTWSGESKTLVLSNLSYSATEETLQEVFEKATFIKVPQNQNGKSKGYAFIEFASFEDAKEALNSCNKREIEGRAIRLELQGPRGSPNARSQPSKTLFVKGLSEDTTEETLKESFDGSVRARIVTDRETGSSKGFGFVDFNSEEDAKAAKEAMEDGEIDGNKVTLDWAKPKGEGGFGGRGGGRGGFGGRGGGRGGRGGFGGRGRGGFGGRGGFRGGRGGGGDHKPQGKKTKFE

- binding [1]: binds
- binding [2]: binds
B1: endogenous DDX21 (protein, UniProt Q9NR30 1-783)
chain: MPGKLRSDAGLESDTAMKKGETLRKQTEEKEKKEKPKSDKTEEIAEEEETVFPKAKQVKKKAEPSEVDMNSPKSKKAKKKEEPSQNDISPKTKSLRKKKEPIEKKVVSSKTKKVTKNEEPSEEEIDAPKPKKMKKEKEMNGETREKSPKLKNGFPHPEPDCNPSEAASEESNSEIEQEIPVEQKEGAFSNFPISEETIKLLKGRGVTFLFPIQAKTFHHVYSGKDLIAQARTGTGKTFSFAIPLIEKLHGELQDRKRGRAPQVLVLAPTRELANQVSKDFSDITKKLSVACFYGGTPYGGQFERMRNGIDILVGTPGRIKDHIQNGKLDLTKLKHVVLDEVDQMLDMGFADQVEEILSVAYKKDSEDNPQTLLFSATCPHWVFNVAKKYMKSTYEQVDLIGKKTQKTAITVEHLAIKCHWTQRAAVIGDVIRVYSGHQGRTIIFCETKKEAQELSQNSAIKQDAQSLHGDIPQKQREITLKGFRNGSFGVLVATNVAARGLDIPEVDLVIQSSPPKDVESYIHRSGRTGRAGRTGVCICFYQHKEEYQLVQVEQKAGIKFKRIGVPSATEIIKASSKDAIRLLDSVPPTAISHFKQSAEKLIEEKGAVEALAAALAHISGATSVDQRSLINSNVGFVTMILQCSIEMPNISYAWKELKEQLGEEIDSKVKGMVFLKGKLGVCFDVPTASVTEIQEKWHDSRRWQLSVATEQPELEGPREGYGGFRGQREGSRGFRGQRDGNRRFRGQREGSRGPRGQRSGGGNKSNRSQNKGQKRSFSKAFGQ

- binding [3]: binds
B2: HA-tagged DDX21 (protein, UniProt Q9NR30 1-783)
chain: B1 chain
